Experimental findings from publication PMC3063334 are described below.

Amino acid sequences for entries named in this document (tags omitted). Residues count along the entry.
UniProt P58281, residues 88-960: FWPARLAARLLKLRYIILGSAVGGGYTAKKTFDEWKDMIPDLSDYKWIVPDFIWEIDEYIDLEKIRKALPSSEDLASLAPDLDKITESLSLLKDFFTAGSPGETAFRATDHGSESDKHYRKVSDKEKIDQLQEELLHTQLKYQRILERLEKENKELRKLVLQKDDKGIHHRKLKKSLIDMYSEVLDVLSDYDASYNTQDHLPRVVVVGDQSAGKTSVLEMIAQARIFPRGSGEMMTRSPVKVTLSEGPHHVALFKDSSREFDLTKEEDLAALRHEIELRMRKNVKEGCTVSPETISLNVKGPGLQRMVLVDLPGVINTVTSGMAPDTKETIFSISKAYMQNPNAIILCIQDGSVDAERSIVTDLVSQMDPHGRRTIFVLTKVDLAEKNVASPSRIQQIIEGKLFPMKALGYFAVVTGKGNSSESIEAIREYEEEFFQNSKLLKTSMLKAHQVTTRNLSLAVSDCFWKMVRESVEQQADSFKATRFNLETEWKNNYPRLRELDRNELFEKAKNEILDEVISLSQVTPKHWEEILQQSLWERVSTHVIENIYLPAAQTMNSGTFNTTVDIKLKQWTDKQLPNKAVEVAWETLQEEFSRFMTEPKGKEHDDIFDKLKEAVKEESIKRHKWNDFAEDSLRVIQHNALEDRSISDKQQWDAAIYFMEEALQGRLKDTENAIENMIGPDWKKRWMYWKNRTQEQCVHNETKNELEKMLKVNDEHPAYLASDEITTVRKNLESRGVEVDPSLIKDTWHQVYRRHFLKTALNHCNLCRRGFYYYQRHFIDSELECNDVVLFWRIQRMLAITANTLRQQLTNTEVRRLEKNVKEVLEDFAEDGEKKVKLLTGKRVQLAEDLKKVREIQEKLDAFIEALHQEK

No constants are given. Whether binding was seen depends on the method and setting. In cells and extracts the contact can be indirect. Some results given as binding are weak or reduced against the parent protein; the word gives no strength.

The experiment has as its target endogenous OPA1 (mouse brain) (mouse (endogenous in C57/Bl6 brain)) (UniProt P58281). The experiment is described as follows: co-IP; C57/Bl6 mouse brain hemisphere homogenate (50 mM Tris pH 7.5, 1% NP-40, 2 mM EDTA, 100 mM NaCl) incubated overnight at 4 °C with anti-OPA1 on protein G agarose or protein G agarose alone, Western blot for Omi/HtrA2. A general note: Immunoblotting shows a protein as a band on a membrane.

B1: endogenous Omi/HtrA2 (mouse brain) (enzyme, UniProt Q9JIY5 134-458)
chain: AVPAPPPTSPRSQYNFIADVVEKTAPAVVYIEILDRHPFSGREVPISNGSGFVVASDGLIVTNAHVVADRRRVRVRLPSGDTYEAMVTAVDPVADIATLRIQTKEPLPTLPLGRSADVRQGEFVVAMGSPFALQNTITSGIVSSAQRPARDLGLPQNNVEYIQTDAAIDFGNSGGPLVNLDGEVIGVNTMKVTAGISFAIPSDRLREFLHRGEKKNSWFGTSGSQRRYIGVMMLTLTPSILIELQLREPSFPDVQHGVLIHKVILGSPAHRAGLRPGDVILAIGEKLAQNAEDVYEAVRTQSQLAVRIRRGSETLTLYVTPEVTE
With B1, the binding entry is “binds”.
